The target in this assay is T1, SHARPIN (Shank-associated RH domain interacting protein) (human (endogenous in A549)) (UniProt Q9H0F6).
T1 sequence: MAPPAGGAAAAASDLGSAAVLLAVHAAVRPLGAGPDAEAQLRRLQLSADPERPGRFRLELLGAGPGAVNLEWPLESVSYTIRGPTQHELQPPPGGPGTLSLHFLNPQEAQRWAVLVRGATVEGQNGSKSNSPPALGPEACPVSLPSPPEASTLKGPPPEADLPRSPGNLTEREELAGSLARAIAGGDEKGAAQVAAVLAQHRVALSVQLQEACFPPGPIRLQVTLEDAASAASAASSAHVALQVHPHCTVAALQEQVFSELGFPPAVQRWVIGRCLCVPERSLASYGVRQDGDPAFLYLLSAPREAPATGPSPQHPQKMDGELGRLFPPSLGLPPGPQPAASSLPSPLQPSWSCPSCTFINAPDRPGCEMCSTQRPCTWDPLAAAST
The assay can be described thus: affinity purification with mass spectrometry; A549 lysate (150 mM NaCl, 50 mM Tris-HCl pH 7.5, 1% Triton X-100), immunoprecipitation with anti-SHARPIN antibody on protein A-agarose at 4°C overnight, no-antibody control, on-bead trypsin digestion, LC-MS/MS.

By UniProt entry, the sequences of proteins in these tests, tags left out.
UniProt O14744: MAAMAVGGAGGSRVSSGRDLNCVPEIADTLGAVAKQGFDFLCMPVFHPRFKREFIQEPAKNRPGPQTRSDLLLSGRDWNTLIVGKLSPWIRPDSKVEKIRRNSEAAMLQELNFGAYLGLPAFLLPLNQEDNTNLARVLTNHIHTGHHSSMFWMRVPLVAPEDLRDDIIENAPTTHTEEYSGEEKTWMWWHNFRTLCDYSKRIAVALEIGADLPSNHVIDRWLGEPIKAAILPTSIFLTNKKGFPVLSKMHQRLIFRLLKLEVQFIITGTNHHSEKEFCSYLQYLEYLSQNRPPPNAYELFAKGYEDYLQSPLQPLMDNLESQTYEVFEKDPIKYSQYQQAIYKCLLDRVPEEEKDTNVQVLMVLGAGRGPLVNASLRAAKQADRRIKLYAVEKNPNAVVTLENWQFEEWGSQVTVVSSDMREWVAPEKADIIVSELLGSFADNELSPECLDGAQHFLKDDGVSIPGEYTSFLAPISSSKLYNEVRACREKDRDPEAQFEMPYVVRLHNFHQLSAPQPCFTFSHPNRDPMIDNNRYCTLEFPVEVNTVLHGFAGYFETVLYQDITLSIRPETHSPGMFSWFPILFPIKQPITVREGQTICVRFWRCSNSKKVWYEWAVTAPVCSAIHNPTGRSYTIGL

Results are given in words; binding and its absence hold for the method and conditions named. In cells and extracts the contact can be indirect. A yes stands for co-enrichment or nearness to the bait. Other partners may have been found.

For the substance “PRMT5 (Protein arginine methyltransferase 5) (from UniProt O14744 1-637) (enzyme)”, the binding entry was “binds”.

The record behind these values is PMC5589623.
